Assay [1] deals with T1, caveolin-1 (mouse (endogenous in mHippoE-14 cells and brain)), P49817.
T1 chain: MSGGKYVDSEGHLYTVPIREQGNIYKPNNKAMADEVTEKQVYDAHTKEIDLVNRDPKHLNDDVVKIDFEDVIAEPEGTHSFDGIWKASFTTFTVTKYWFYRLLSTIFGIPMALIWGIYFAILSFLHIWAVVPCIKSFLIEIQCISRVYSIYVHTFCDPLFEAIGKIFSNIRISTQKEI
In words: proximity ligation; Duolink PLA on PFA-fixed mHippoE-14 cells with antibodies to IR and Cav-1; cells exposed to saline or 5 μM ADDLs for 30 min, with or without GENZ pre-treatment. The note with it: remark: other sources report otherwise.

The target in assay [2] is T1, caveolin-1 (mouse (endogenous in …)). Description: proximity ligation; Duolink PLA on 5 μm paraffin sections of mouse brain (7 months old Ugcgf/f, 5xFAD and 5xFAD//Cre mice), antigen retrieval in citrate buffer pH 6.0; antibodies to IR and Cav-1; spots counted in cortical neurons. The note with it: remark: other sources report otherwise.

Results are given in words; binding and its absence hold for the method and conditions named. In cells and extracts the contact can be indirect. Some results given as binding are weak or reduced against the parent protein; the word gives no strength.

For one molecule, binding results are on record in paper PMC5027102.

B1: insulin receptor (IR), P15208 28-748; P15208 753-1372 (receptor)
chain 1: HLYPGEVCPGMDIRNNLTRLHELENCSVIEGHLQILLMFKTRPEDFRDLSFPKLIMITDYLLLFRVYGLESLKDLFPNLTVIRGSRLFFNYALVIFEMVHLKELGLYNLMNITRGSVRIEKNNELCYLATIDWSRILDSVEDNYIVLNKDDNEECGDVCPGTAKGKTNCPATVINGQFVERCWTHSHCQKVCPTICKSHGCTAEGLCCHKECLGNCSEPDDPTKCVACRNFYLDGQCVETCPPPYYHFQDWRCVNFSFCQDLHFKCRNSRKPGCHQYVIHNNKCIPECPSGYTMNSSNLMCTPCLGPCPKVCQILEGEKTIDSVTSAQELRGCTVINGSLIINIRGGNNLAAELEANLGLIEEISGFLKIRRSYALVSLSFFRKLHLIRGETLEIGNYSFYALDNQNLRQLWDWSKHNLTITQGKLFFHYNPKLCLSEIHKMEEVSGTKGRQERNDIALKTNGDQASCENELLKFSFIRTSFDKILLRWEPYWPPDFRDLLGFMLFYKEAPYQNVTEFDGQDACGSNSWTVVDIDPPQRSNDPKSQTPSHPGWLMRGLKPWTQYAIFVKTLVTFSDERRTYGAKSDIIYVQTDATNPSVPLDPISVSNSSSQIILKWKPPSDPNGNITHYLVYWERQAEDSELFELDYCLKGLKLPSRTWSPPFESDDSQKHNQSEYDDSASECCSCPKTDSQILKELEESSFRKTFEDYLHNVVFVPRPS
chain 2: SLEEVGNVTATTLTLPDFPNVSSTIVPTSQEEHRPFEKVVNKESLVISGLRHFTGYRIELQACNQDSPDERCSVAAYVSARTMPEAKADDIVGPVTHEIFENNVVHLMWQEPKEPNGLIVLYEVSYRRYGDEELHLCVSRKHFALERGCRLRGLSPGNYSVRVRATSLAGNGSWTEPTYFYVTDYLDVPSNIAKIIIGPLIFVFLFSVVIGSIYLFLRKRQPDGPMGPLYASSNPEYLSASDVFPSSVYVPDEWEVPREKITLLRELGQGSFGMVYEGNAKDIIKGEAETRVAVKTVNESASLRERIEFLNEASVMKGFTCHHVVRLLGVVSKGQPTLVVMELMAHGDLKSHLRSLRPDAENNPGRPPPTLQEMIQMTAEIADGMAYLNAKKFVHRDLAARNCMVAHDFTVKIGDFGMTRDIYETDYYRKGGKGLLPVRWMSPESLKDGVFTASSDMWSFGVVLWEITSLAEQPYQGLSNEQVLKFVMDGGYLDPPDNCPERLTDLMRMCWQFNPKMRPTFLEIVNLLKDDLHPSFPEVSFFYSEENKAPESEELEMEFEDMENVPLDRSSHCQREEAGGREGGSSLSIKRTYDEHIPYTHMNGGKKNGRVLTLPRSNPS
As for B1, the binding result in assay [1] and in assay [2] was “binds” each time.
